Test [1] concerns the target GFP-Scribble S1448D (human) (UniProt Q14160). In words: affinity purification with mass spectrometry; GFP-Scribble (wild type or mutant) precipitated with anti-GFP antibody (B-2) and protein A/G magnetic beads from lysates of transfected HEK293T cells (1% Igepal, 50 mM Tris-HCl pH 6.8, RT); on-bead trypsin digest, LC-MS/MS, spectral counts.
For test [2], the target named is GFP-Scribble (wild type) (human) (UniProt Q14160). The description is as above.
Test [3] concerns the target truncated GFP-Scribble lacking exons 30-37 (codon 1293 changed to stop) (human) (UniProt Q14160). Described as above.
The target of test [4] is GFP-Scribble S1448A (human) (UniProt Q14160). The test is described as above.
For test [5], the target named is endogenous Scribble (human (endogenous in HEK293)) (UniProt Q14160). Nature of the test: condition: only cells in other phases of the cell cycle (not arrested by nocodazole); affinity purification with mass spectrometry; endogenous Scribble precipitated (anti-Scribble C-6) from cell cycle-synchronized HEK293 cells in phases other than the nocodazole arrest; Numa1 quantified by targeted mass spectrometry.

Chains of the proteins cited; added tags and fusions are not shown. Lines headed by an entry give the natural chain unless they say otherwise; changes in a name come on top. Residues count along the entry.
UniProt Q14160: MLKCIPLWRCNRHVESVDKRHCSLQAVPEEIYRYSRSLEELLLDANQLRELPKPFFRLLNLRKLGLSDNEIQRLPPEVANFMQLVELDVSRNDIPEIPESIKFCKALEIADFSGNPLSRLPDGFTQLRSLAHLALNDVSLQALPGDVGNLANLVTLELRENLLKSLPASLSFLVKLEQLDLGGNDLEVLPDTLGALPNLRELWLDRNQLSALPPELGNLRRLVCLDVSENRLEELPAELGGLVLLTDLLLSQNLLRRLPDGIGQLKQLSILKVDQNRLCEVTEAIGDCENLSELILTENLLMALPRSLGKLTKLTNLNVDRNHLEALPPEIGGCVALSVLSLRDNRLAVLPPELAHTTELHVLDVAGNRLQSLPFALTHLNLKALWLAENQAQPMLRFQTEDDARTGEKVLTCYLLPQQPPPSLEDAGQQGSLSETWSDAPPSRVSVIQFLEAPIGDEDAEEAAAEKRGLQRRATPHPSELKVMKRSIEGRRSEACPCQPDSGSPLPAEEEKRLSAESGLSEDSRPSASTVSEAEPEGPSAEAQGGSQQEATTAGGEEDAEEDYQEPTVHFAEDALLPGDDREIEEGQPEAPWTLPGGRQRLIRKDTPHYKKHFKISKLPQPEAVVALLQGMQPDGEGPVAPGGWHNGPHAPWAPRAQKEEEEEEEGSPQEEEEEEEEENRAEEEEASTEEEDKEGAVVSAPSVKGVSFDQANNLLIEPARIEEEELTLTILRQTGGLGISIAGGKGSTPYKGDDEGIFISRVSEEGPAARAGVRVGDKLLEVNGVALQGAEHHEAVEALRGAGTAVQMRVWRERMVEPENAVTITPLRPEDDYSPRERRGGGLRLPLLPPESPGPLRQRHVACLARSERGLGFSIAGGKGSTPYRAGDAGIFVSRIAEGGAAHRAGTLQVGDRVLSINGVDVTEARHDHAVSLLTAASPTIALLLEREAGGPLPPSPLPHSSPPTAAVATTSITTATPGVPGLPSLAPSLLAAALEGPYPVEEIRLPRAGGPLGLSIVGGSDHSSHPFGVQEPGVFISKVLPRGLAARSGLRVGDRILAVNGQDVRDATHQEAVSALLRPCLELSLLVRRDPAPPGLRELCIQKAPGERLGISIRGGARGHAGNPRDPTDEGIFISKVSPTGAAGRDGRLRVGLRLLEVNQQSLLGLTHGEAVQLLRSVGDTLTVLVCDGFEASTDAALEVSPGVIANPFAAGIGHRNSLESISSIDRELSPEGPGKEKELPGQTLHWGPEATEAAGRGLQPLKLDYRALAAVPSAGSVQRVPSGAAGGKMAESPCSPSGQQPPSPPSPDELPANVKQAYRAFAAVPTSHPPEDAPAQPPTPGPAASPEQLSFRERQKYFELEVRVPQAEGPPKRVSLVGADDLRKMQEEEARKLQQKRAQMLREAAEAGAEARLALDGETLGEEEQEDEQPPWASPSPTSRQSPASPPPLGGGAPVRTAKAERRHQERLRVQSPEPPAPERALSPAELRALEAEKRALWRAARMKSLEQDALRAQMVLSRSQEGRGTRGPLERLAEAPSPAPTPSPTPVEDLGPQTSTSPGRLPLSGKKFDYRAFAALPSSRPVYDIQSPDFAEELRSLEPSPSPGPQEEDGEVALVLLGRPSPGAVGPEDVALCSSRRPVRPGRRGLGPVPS
truncated GFP-Scribble lacking exons 30-37 (codon 1293 changed to stop): residues 1-1292 of Q14160
UniProt Q14155: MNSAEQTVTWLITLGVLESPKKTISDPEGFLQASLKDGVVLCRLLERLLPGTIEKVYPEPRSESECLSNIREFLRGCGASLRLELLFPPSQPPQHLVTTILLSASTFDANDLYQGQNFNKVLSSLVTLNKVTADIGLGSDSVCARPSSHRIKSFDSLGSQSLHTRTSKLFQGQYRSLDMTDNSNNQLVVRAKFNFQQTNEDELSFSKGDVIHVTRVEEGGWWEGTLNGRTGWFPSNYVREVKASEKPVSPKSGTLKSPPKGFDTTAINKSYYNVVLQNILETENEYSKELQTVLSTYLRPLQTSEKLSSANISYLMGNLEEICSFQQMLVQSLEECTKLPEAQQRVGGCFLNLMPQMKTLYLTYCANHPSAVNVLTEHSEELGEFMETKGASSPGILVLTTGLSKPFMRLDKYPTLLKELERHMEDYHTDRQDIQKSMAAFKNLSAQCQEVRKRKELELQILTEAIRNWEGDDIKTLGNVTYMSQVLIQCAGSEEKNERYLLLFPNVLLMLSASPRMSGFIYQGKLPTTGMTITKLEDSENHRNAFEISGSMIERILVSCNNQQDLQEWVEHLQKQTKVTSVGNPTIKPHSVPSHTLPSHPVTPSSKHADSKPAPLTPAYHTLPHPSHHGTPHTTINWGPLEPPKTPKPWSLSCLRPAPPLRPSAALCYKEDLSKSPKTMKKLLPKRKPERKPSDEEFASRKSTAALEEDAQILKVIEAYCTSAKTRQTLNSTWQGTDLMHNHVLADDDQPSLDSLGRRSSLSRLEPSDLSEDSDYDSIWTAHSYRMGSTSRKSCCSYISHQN
UniProt Q9Y2X7: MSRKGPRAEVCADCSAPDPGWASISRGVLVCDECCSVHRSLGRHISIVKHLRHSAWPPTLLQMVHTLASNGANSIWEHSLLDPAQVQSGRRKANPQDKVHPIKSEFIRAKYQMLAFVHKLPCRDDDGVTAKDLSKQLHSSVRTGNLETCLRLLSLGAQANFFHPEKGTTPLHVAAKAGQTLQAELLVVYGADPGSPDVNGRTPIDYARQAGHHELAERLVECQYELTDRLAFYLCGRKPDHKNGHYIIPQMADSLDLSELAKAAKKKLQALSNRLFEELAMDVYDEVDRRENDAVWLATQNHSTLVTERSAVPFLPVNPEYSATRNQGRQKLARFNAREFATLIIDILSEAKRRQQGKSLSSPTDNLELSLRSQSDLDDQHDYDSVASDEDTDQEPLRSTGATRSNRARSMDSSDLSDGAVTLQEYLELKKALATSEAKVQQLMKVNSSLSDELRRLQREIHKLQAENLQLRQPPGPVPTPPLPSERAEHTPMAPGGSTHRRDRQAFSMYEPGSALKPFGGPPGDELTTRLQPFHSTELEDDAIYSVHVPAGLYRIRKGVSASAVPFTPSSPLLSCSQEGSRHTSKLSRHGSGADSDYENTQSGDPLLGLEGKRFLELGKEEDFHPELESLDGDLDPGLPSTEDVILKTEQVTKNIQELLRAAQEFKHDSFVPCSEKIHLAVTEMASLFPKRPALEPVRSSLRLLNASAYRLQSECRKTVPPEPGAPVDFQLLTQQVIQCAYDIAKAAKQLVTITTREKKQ
UniProt Q14980: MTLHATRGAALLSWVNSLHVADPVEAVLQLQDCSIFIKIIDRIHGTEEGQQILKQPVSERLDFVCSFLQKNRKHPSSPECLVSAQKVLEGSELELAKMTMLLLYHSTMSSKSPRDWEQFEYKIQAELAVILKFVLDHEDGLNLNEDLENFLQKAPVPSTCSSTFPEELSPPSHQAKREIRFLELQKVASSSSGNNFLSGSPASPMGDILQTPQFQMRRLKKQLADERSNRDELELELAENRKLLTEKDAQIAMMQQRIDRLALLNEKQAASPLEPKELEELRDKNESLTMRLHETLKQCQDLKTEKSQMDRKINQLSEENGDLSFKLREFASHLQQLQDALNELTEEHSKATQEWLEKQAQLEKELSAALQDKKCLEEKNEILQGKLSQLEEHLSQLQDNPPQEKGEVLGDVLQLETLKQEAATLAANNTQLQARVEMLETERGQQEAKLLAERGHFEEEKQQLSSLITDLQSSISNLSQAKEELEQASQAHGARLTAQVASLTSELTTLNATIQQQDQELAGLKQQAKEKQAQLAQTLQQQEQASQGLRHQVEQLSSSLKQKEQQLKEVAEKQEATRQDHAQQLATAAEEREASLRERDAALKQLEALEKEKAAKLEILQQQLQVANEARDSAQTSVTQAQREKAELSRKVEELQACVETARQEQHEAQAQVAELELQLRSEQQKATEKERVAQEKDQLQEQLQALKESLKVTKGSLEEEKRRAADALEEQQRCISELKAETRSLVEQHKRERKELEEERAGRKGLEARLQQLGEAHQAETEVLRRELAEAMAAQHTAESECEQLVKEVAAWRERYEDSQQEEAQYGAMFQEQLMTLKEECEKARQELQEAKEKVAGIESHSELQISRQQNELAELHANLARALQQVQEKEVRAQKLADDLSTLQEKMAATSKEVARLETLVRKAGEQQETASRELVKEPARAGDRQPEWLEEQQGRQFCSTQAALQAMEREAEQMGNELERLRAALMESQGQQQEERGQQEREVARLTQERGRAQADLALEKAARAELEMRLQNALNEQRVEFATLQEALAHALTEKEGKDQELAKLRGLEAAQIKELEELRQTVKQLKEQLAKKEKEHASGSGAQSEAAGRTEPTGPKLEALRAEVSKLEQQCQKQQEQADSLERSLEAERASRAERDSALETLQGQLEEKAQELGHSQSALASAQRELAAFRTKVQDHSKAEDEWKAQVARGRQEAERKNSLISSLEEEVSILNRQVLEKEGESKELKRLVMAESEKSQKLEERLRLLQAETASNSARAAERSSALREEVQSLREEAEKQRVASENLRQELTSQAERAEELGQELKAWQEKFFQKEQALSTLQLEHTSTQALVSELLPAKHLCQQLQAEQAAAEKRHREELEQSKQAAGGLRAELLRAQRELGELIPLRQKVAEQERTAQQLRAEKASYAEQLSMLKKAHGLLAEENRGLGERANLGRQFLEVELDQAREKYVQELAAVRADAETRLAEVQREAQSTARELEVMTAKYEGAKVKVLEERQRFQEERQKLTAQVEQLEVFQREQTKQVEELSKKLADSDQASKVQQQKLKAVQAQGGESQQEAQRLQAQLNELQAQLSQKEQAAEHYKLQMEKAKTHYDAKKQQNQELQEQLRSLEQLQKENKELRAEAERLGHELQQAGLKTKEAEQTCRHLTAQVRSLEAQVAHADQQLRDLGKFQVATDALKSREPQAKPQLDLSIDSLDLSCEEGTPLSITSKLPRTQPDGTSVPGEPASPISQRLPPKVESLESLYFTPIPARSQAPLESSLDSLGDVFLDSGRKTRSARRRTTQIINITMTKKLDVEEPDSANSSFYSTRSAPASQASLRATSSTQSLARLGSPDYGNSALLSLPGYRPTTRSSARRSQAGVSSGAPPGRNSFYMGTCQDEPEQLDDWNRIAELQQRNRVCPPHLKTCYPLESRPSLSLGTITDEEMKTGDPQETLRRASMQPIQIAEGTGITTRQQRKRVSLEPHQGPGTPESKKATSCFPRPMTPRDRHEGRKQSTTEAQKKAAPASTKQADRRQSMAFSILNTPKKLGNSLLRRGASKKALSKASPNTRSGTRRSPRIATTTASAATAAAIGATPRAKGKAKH
UniProt P08670: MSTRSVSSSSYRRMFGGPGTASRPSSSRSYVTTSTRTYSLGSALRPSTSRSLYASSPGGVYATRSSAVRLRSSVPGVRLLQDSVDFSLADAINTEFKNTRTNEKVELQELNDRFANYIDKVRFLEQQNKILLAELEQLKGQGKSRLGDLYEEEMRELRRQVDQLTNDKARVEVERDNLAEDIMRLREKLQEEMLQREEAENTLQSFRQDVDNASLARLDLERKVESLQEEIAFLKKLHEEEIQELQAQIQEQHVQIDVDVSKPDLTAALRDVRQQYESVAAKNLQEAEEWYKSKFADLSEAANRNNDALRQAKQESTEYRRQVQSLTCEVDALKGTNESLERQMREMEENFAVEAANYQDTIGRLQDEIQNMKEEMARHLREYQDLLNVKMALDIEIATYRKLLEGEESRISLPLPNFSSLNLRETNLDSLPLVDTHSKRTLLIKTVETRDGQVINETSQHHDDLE

Test [6] shares this target. Nature of the test: affinity purification with mass spectrometry; endogenous Scribble precipitated (anti-Scribble C-6) from HEK293 cells arrested by nocodazole; Numa1 quantified by targeted mass spectrometry (SRM of …).

Results are given in words; binding and its absence hold for the method and conditions named. Binding seen in cells or lysates may run through a third protein. A yes stands for co-enrichment or nearness to the bait. Other partners may have been found. For part of these data: A no says only that the protein was not detected with the bait.

Beta-pix (from UniProt Q14155 1-803): the binding entry in test [1], in test [2], in test [3] and in test [4] was “binds” in each case.

Take Git1 (from UniProt Q9Y2X7 1-761): the binding result in test [1], in test [2], in test [3] and in test [4] was “binds” throughout.

“nuclear mitotic apparatus protein Numa1 (from UniProt Q14980 1-2115)”: the binding result in test [5] is given as “no binding”; in test [6], “binds”; in test [1], “binds”; in test [2], “binds”.

For Vimentin (from UniProt P08670 1-466), the binding result in test [1], in test [2] and in test [4] was “binds” in each case.

The values are drawn from publication PMC4919504.
